Reference: publication PMC6984821

Target: JCPyV-CY Small T antigen, C-terminal Flag-HA (CTAP) tagged (JC polyomavirus (JCPyV-CY))
Assay: co-IP; HA-tag immunoprecipitation from lysates of HCT116 cells expressing CTAP (C-terminal Flag-HA) tagged STs; endogenous partners detected by immunoblot

B1: STRN3, endogenous (protein, UniProt Q13033 1-797)
chain: MDELAGGGGGGPGMAAPPRQQQGPGGNLGLSPGGNGAAGGGGPPASEGAGPAAGPELSRPQQYTIPGILHYIQHEWARFEMERAHWEVERAELQARIAFLQGERKGQENLKKDLVRRIKMLEYALKQERAKYHKLKYGTELNQGDLKMPTFESEETKDTEAPTAPQNSQLTWKQGRQLLRQYLQEVGYTDTILDVRSQRVRSLLGLSNSEPNGSVETKNLEQILNGGESPKQKGQEIKRSSGDVLETFNFLENADDSDEDEENDMIEGIPEGKDKHRMNKHKIGNEGLAADLTDDPDTEEALKEFDFLVTAEDGEGAGEARSSGDGTEWDKDDLSPTAEVWDVDQGLISKLKEQYKKERKGKKGVKRANRTKLYDMIADLGDDELPHIPSGIINQSRSASTRMTDHEGARAEEAEPITFPSGGGKSFIMGSDDVLLSVLGLGDLADLTVTNDADYSYDLPANKDAFRKTWNPKYTLRSHFDGVRALAFHPVEPVLVTASEDHTLKLWNLQKTVPAKKSASLDVEPIYTFRAHIGPVLSLAISSNGEQCFSGGIDATIQWWNMPSPSVDPYDTYEPNVLAGTLVGHTDAVWGLAYSGIKNQLLSCSADGTVRLWNPQEKLPCICTYNGDKKHGIPTSVDFIGCDPAHMVTSFNTGSAVIYDLETSQSLVILSSQVDSGLQSNNHINRVVSHPTLPVTITAHEDRHIKFFDNKTGKMIHSMVAHLDAVTSLAVDPNGIYLMSGSHDCSIRLWNLDSKTCVQEITAHRKKLDESIYDVAFHSSKAYIASAGADALAKVFV
- binding: binds

Results are given in words; binding and its absence hold for the method and conditions named. Binding seen in cells or lysates may run through a third protein. A result given as binding can be weak or reduced; the word gives no strength.
